For at least one compound, name, drawing or mass did not settle the structure.
Test system: Rhinovirus HGP
Test: Antiviral activity: inhibition of viral cytopathogenic effect (C.P.E.) in HeLa cell culture
Assay type: cell-based
Conditions: qualitative statement in the description, no virus named
Procedure: Eine Suspension von HeLa-Zellen (6 x 10^4) wurde mit Rhinovirus HGP (3 x 10^3 Plaque-bildende Einheiten, PFU) gemischt und auf eine Mikrotestplatte gebracht, die die zu testenden Verbindungen in zunehmender Verdünnung enthielten. Die Zellen wurden dann in Eagle's Minimalnährlösung, die 2% Kalbsserum, 1% Tryptosephosphatbrühe, 100 ug/ml Streptomycin und 20 Einheiten/ml Penicillin G enthielt, kultiviert. Der virale zytopathogenische Effekt (C.P.E.) und die Cytotoxizität wurden mikroskopisch nach 2 Tagen Kultivierung bei 33°C beobachtet. Die antivirale Aktivität (IC50) der Testverbindungen ist diejenige Konzentration,.bei der C.P.E. um 50% gegenüber der Kontrollkultur gehemmt war. Die Cytotoxizität ist als Minimalkonzentration angegeben, bei der toxische Symptome beobachtet wurden.(cytotoxische Dosis).

## CCOc1cc(OC)c(C(=O)CCc2ccc(OC)cc2)c(OC(C)=O)c1 [5-Ethoxy-3-methoxy-2-[3-(4-methoxyphenyl)-propionyl]phenyl-acetat]
  antivirale Aktivität: besonders starke antivirale Aktivität
